PubChem BioAssay AID1259425 – University of Nebraska Medical Center | 2018
Assay: 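Find knockdowns that reproduce the gene expression pattern seen when KSR1 is lost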 (primary screen). Cells: HCT116 human colon cancer cells. Reagent: siRNA pool against human genes, 50 nM siRNA. Measurement: 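After 50 nM siRNA pool, branched-DNA assay measures six marker transcripts per well, minus blank, normalised to the geometric mean of two housekeeping transcripts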. Direction: BNIP3L mRNA: higher = more BNIP3L transcript after knockdown.
Shown is an unselected part of about 14,000 reagents tested. The numbers tell different reagents against one gene apart. Further read-outs or replicates are left out here. Not given: the time to read-out.

no.	gene knocked down	pool no.	BNIP3L mRNA, set 1
1	FBH1 (F-box DNA helicase 1)	1	0.174
2	LNPK (lunapark, ER junction formation factor)	1	0.144
3	DACH2 (dachshund family transcription factor 2)	1	0.126
4	H4C8 (H4 clustered histone 8)	1	0.146
5	H2AC11 (H2A clustered histone 11)	1	0.114
6	PARD6A (par-6 family cell polarity regulator alpha)	1	0.124
7	TRPV5	1	0.093
8	HADH (hydroxyacyl-CoA dehydrogenase)	1	0.0953
9	FCER1G (Fc epsilon receptor Ig)	1	0.0118
10	DLX6 (distal-less homeobox 6)	1	0.126
11	SLC16A4	1	0.111
12	CACNG3 (calcium voltage-gated channel auxiliary subunit gamma 3)	1	0.119
13	BCL6 (BCL6 transcription repressor)	1	0.069
14	BUB1B (BUB1 mitotic checkpoint serine/threonine kinase B)	1	0.112
15	CTNS (cystinosin, lysosomal cystine transporter)	1	0.0582
16	RBM11 (RNA binding motif protein 11)	1	0.242
17	ATG7 (autophagy related 7)	1	0.0626
18	ZNF407 (zinc finger protein 407)	1	0.226
19	TMEM176A (transmembrane protein 176A)	1	0.0689
20	SGK2 (serum/glucocorticoid regulated kinase 2)	1	0.0796

Individual results from the entries so far.
ZNF407 (zinc finger protein 407), BNIP3L mRNA, set 1 → 0.226
Under “BNIP3L mRNA, set 1”, DACH2 (dachshund family transcription factor 2) reads 0.126
Under “BNIP3L mRNA, set 1”, CACNG3 (calcium voltage-gated channel auxiliary subunit gamma 3) shows 0.119
Entry for ATG7 (autophagy related 7) under “BNIP3L mRNA, set 1”: 0.0626
Under “BNIP3L mRNA, set 1”, FCER1G (Fc epsilon receptor Ig) reads 0.0118

Next entries follow:
no.	gene knocked down	pool no.	BNIP3L mRNA, set 1
21	TREX1 (three prime repair exonuclease 1)	1	0.0694
22	TMEM9B (TMEM9 domain family member B)	1	0.0957
23	H3C10 (H3 clustered histone 10)	1	0.156
24	CLIC1 (CLIC family member 1)	1	0.0494
25	GNMT (glycine N-methyltransferase)	1	0.126
26	SLC22A23	1	0.0963
27	SLC22A23	2	0.176
28	PAMR1	1	0.115
29	SPATA6 (spermatogenesis associated 6)	1	0.202
30	CCDC30 (coiled-coil domain containing 30)	1	0.0783
31	PRKD2 (protein kinase D2)	1	0.105
32	LGALSL (galectin like)	1	0.0604
33	PPP1R14C (protein phosphatase 1 regulatory inhibitor subunit 14C)	1	0.0629
34	SPON2 (spondin 2)	1	0.0916
35	RAB6A (RAB6A, member RAS oncogene family)	1	0.0632
36	HTR1D (5-hydroxytryptamine receptor 1D)	1	0.138
37	TBX22 (T-box transcription factor 22)	1	0.0941
38	FOXRED2 (FAD dependent oxidoreductase domain containing 2)	1	0.312
39	FOXF1 (forkhead box F1)	1	0.0761
40	WBP1 (WW domain binding protein 1)	1	0.196
41	SUMF2 (sulfatase modifying factor 2)	1	0.178
42	GRM8 (glutamate metabotropic receptor 8)	1	0.298
43	ACSS2 (acyl-CoA synthetase short chain family member 2)	1	0.0782
44	GALNT12 (polypeptide N-acetylgalactosaminyltransferase 12)	1	0.172
45	PAQR5 (progestin and adipoQ receptor family member 5)	1	0.143
46	MYOCD (myocardin)	1	0.0594
47	ARHGAP17 (Rho GTPase activating protein 17)	1	0.0788
48	PAIP1 (poly(A) binding protein interacting protein 1)	1	0.0752
49	ACVR1 (activin A receptor type 1)	1	0.124
50	ARHGAP20 (Rho GTPase activating protein 20)	1	0.194
